The source of these data is article PMC12166406.

In assay [1] the target is T1, phosphoribosyl pyrophosphate synthetase 1 (PRPS1) (human (endogenous in CA46, DG-75, P493-6)) (UniProt P60891).
T1 sequence: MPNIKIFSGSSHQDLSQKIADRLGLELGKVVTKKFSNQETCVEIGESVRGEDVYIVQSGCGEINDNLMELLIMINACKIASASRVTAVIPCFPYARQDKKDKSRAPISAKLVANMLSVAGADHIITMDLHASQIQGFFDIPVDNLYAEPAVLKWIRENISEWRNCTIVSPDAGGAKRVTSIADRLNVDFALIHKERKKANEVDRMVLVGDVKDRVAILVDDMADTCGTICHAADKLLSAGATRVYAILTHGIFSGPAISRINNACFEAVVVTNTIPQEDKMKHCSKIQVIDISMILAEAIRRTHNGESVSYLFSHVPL
As to the kind of experiment: SEC; P493-6 cell lysates, with tetracycline (MYC OFF) or without (MYC ON), on Superose 6 Increase 3.2/300, mobile phase 0.1 M Na2HPO4, 0.1 M NaCl, pH 7.5; fractions analysed by Western blot against internal size standards.

In assay [2] the target is T1, phosphoribosyl pyrophosphate synthetase 1 (PRPS1) (human (endogenous in CA46, DG-75, P493-6)). Put plainly: SEC; CA46 and DG-75 cell lysates (~200 ug; 50 mM Tris-Cl pH 7.5, 200 mM NaCl, 1 % digitonin, 1 mM TCEP, 1 mM MgCl2, benzonase) on Superose 6 Increase 3.2/300, mobile phase 0.1 M Na2HPO4, 0.1 M NaCl, pH 7.5; fractions analysed by Western blot against internal size standards. In general terms: Size exclusion chromatography separates by hydrodynamic size, large species first.

Assay [3] deals with T2, phosphoribosyl pyrophosphate synthetase 2 (PRPS2) (human (endogenous in CA46, DG-75, P493-6)) (UniProt P11908).
T2 sequence: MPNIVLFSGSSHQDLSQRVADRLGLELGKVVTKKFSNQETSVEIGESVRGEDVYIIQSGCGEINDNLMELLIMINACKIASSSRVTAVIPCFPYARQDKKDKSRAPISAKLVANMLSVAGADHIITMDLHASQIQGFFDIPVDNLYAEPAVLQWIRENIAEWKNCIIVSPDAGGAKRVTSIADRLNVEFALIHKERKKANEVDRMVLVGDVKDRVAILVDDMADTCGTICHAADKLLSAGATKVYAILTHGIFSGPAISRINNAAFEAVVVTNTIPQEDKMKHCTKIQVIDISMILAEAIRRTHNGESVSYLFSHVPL
The assay is described as above.

No constants are given. Whether binding was seen depends on the method and setting. Some results given as binding are weak or reduced against the parent protein; the word gives no strength.

B1: phosphoribosyl pyrophosphate synthetase 2 (PRPS2) (enzyme, UniProt P11908 1-318)
chain: T2 sequence
For B1, the binding result in assay [1] and in assay [2] was “binds” each time.

B2: PRPS associated protein 2 (PRPSAP2) (protein, UniProt O60256 1-369)
chain: MFCVTPPELETKMNITKGGLVLFSANSNSSCMELSKKIAERLGVEMGKVQVYQEPNRETRVQIQESVRGKDVFIIQTVSKDVNTTIMELLIMVYACKTSCAKSIIGVIPYFPYSKQCKMRKRGSIVSKLLASMMCKAGLTHLITMDLHQKEIQGFFNIPVDNLRASPFLLQYIQEEIPDYRNAVIVAKSPASAKRAQSFAERLRLGIAVIHGEAQDAESDLVDGRHSPPMVRSVAAIHPSLEIPMLIPKEKPPITVVGDVGGRIAIIVDDIIDDVDSFLAAAETLKERGAYKIFVMATHGLLSSDAPRRIEESAIDEVVVTNTIPHEVQKLQCPKIKTVDISMILSEAIRRIHNGESMSYLFRNIGLDD
Regarding B2, the binding entry in assay [3] was “binds”.
